Results are given in words; binding and its absence hold for the method and conditions named. Some entries that bind do so weakly or less than the wild type.
What was measured:
[1] = biological target: Ephrin type-A receptor 2 (EphA2), human (human) (UniProt P29317); test: liposome-cell association, flow cytometry, 34 cell lines
[2] = biological target: Ephrin type-A receptor 2 (EphA2), human (human) (UniProt P29317); test: liposome-cell association, flow cytometry on a panel of cell lines
[3] = biological target: Ephrin type-A receptor 2 (EphA2), human (human) (UniProt P29317); test: liposome-cell association, flow cytometry of DiI5-labelled liposomes on cancer cell lines, 4 h 37 C

Sequences of proteins named here, by UniProt entry; tags and fusion partners are left off. Residues count along the entry.
UniProt P29317, residues 24-976: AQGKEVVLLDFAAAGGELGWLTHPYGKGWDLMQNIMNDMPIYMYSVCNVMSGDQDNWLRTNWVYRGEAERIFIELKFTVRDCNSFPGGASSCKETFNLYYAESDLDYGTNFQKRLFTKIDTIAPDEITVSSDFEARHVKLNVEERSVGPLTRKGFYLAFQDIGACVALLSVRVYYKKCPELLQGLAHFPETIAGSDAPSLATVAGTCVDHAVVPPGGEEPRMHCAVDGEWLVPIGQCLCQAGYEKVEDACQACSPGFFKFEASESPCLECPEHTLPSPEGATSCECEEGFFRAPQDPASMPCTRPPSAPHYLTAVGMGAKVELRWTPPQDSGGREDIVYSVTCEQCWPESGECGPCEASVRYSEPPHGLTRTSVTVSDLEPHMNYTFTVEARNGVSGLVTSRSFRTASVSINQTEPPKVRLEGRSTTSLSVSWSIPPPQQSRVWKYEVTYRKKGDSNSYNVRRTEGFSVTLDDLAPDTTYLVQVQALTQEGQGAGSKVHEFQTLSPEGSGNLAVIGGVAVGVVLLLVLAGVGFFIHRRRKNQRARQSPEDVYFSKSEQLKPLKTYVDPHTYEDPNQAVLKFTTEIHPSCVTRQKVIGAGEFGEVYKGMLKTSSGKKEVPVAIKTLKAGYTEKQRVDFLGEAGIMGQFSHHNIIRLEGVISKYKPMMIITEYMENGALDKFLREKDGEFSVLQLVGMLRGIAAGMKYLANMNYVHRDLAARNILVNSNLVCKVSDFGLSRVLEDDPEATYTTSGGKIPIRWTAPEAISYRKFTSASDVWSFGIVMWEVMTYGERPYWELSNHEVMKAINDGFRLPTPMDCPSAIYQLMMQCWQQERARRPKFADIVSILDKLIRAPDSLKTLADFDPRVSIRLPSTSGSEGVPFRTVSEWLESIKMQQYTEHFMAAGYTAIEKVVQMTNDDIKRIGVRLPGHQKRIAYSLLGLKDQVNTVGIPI

binding [1]: binds
binding [2]: binds
binding [3]: binds
B1: 40scFv-ILs (immunoliposome carrying the anti-EphA2 scFv of SEQ ID NO:40) (scFv)
scFv: QVQLVQSGGGLVQPGGSLRLSCAASGFTFSSYAMHWVRQAPGKGLEWVAVISYDGSNKYYADSVKGRFTISRDNSKNTLYLQMNSLRAEDTAVYYCARASVGATGPFDIWGQGTLVTVSSASTGGGGSGGGGSGGGGSGGGGSSSELTQPPSVSVAPGQTVTITCQGDSLRSYYASWYQQKPGTAPKLLIYGENNRPSGVPDRFSGSSSGTSASLTITGAQAEDEADYYCNSRDSSGTHLTVFGGGTKLTVLGGGSGGC

— patent US20190298681A1
